According to PMC5622167:
No constants are given. Whether binding was seen depends on the method and setting.

Biological target: T1, bovine α-lactalbumin (bovine), P00711
T1 chain: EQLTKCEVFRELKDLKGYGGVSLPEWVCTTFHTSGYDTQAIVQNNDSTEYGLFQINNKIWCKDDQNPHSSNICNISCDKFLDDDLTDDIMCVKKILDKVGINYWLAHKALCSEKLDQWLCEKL
Assay: SEC; size-exclusion HPLC (COSMOSIL 5Diol-300-II), 50 mM sodium phosphate buffer, pH 6.5, 0.5 mL/min; BLA (20 µg) heated at 100 °C in HEPES buffer, pH 6.8, with or without 1 mM MMTS; both purified
Settings: remark: other sources report otherwise

B1: bovine α-lactalbumin, P00711 20-142 (protein)
chain: T1 chain
binding: no binding
